# From PubChem BioAssay AID1671190 (National Center for Advancing Translational Sciences (NCATS), 2021)
# Chains of the proteins cited; added tags and fusions are not shown. Lines headed by an entry give the natural chain unless they say otherwise; changes in a name come on top.
# UniProt P18054: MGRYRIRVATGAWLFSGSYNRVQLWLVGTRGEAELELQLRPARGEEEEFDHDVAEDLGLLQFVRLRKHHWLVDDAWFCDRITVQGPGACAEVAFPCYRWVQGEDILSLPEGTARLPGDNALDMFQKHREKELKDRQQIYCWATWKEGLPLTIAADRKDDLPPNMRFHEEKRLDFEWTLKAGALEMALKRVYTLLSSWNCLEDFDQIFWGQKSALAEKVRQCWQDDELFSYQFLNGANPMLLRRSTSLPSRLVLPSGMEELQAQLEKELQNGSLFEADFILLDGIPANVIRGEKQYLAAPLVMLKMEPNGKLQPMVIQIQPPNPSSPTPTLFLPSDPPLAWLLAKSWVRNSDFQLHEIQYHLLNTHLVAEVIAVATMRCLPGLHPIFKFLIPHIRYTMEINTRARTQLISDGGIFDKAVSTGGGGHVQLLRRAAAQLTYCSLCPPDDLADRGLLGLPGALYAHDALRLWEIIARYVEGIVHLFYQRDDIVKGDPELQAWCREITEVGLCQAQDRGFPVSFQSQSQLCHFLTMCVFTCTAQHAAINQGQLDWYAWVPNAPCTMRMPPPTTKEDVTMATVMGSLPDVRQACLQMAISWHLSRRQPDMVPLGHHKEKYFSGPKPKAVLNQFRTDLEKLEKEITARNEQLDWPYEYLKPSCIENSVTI
# Several values for one entry are separate records, joined by “and”; a condition that tells them apart may be missing. Identical values can stand only once. Out of some 580,000 compounds screened, about 6,100 (1.1%) were called active. The shares of active, inactive and inconclusive entries below differ from those in the screen. Calls follow the shape of the dose curve; as a rule, active = well fitted inhibition curve with a large enough effect; inconclusive = small, poorly fitted or top-dose-only effect, or another doubt; inactive = no such curve, though single readings can be large or run the other way. Where the call is inconclusive, the potency comes from a doubtful curve fit.
# Biological target: Polyunsaturated fatty acid lipoxygenase ALOX12 (Homo sapiens) (UniProt P18054)
# Experiment: Primary qHTS assay for inhibitors of human arachidonate 12S-lipoxygenase (ALOX12): Round 2
# Details: purified 12hLO, xylenol orange hydroperoxide absorbance; activity change, negative = inhibition: at 108 µM (top of the series) unless noted
# In short: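 Purified human 12hLO (150 nM final) in 25 mM Hepes, 0.01% Triton X-100, pH 7.0 was preincubated 15 min at room temperature with compound. Then 40 uM arachidonic acid was added, 30 min. Hydroperoxide was read by Fe-XO absorbance ratio 573/405 nm.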
# % is scaled to controls: 0 for no effect and ±100 for the full control effect; potency is read from the fitted curve at half-maximal effect.
SMILES,Potency,"activity change, negative = inhibition"
COc1ccc2cc(CCNC(=O)c3ccc(Br)o3)c(=O)[nH]c2c1,"inconclusive: 56.2 µM [inhibitor, partial curve, poor fit]",
O=C(COC(=O)/C=C/c1cccc(C(F)(F)F)c1)NCc1ccco1,"inconclusive: 56.2 µM [inhibitor, partial curve, poor fit]",
O=C(O)CSc1nnc(NC(=O)c2ccc3c(c2)OCO3)s1,"inconclusive: 89.1 µM [inhibitor, partial curve, poor fit]",
N/C(=N\OC(=O)/C=C/c1ccccc1Cl)c1ccncc1,,inactive: 10.5%
Cc1cccc(C)c1NC(=O)COC(=O)c1nonc1N,"inconclusive: 126 µM [inhibitor, single point]",
COC(=O)c1c(Sc2ccccc2)c2ccccc2n1C,"inconclusive: 44.7 µM [inhibitor, partial curve, poor fit]",
c1cncc(Nc2nc(-c3cccs3)cs2)c1,"inconclusive: 44.7 µM [inhibitor, partial curve]",
O=C(O)CCC1CCN(c2cc(NC3CC3)ncn2)CC1,,inactive: 21.7%
Cc1cc2oc(=O)cc(CSc3nnc4ccccn34)c2cc1C,"inconclusive: 44.7 µM [inhibitor, partial curve, poor fit]",
CCS(=O)(=O)N1CCN(Cc2ccncc2)CC1,"inconclusive: 0.398 µM [inhibitor, full curve, poor fit]",
Cc1ccc2ncc(S(=O)(=O)c3ccccc3)c(N3CCCCC3C)c2c1 (stereo not drawn),"inconclusive: 89.1 µM [inhibitor, partial curve, poor fit] and inconclusive: 89.1 µM [inhibitor, single point]",
CC(=O)c1ccc(NC(=O)Cn2nc(-c3ccccc3)cc(NC(=O)C(C)C)c2=O)cc1,"inconclusive: 28.2 µM [inhibitor, single point]",
CCNc1c(NC(=O)c2cc(OC)ccc2Br)c(=O)oc2ccccc12,,inactive: 4.17%
COc1cccc(C2=CC(=O)CC(C)(C)C2)n1,,inactive: 0.308%
Cc1cc(N2CCN(C)CC2)nc2ccc(NC(=S)N3CCN(c4ccc(F)cc4)CC3)cc12,,inactive: 33.7%
CCN1/C(=C\C(=S)Nc2ccccc2)Sc2ccccc21,active: 31.6 µM,
Cc1cc(C)cc(C(=O)NC(CC(N)=O)c2ccc(N3CCN(c4ccccn4)CC3)c([N+](=O)[O-])c2)c1 (stereo not drawn),"inconclusive: 79.4 µM [inhibitor, single point]",
O=C1NC(CCc2ccccc2)C(=O)N1Cc1coc(-c2cccc(F)c2)n1 (stereo not drawn),"inconclusive: 50.1 µM [inhibitor, single point]",
